# Reference: PubChem BioAssay AID192 (DTP/NCI, 2004)
# The list shows only some results of the screen, not a fair sample: it is rich in T/C values a quarter to a half above the control, in often repeated tests (any T/C) and in doses without a T/C. Other doses and runs of a compound stand elsewhere. T/C: endpoint of the treated group in % of that of the vehicle group. Some doses have a count of surviving animals in place of a T/C: the source holds a T/C of zero for them, seemingly a mark for toxic or unscored doses. Some doses without a T/C left all or most animals alive at the check, yet need not have been tolerated: the source hardly ever lists a survival T/C far under the control, and the zero likely stands for such cases as well. Survivors were counted at the toxicity check, usually on the fifth day, unless a day is given; later deaths do not show. Schedules are NCI's codes, taken here to give the interval after Q, in days (D) or hours (H), and the number of doses after X. Some doses were run more than once; their values stand side by side, smallest first. Counts like (3×) give the number of equal values in this list. For survival time, this PubChem deposit counts one and a half times the control or more as active, and values a quarter to a half above the control carry no call in these data; other NCI protocols may use other cut-offs. Some T/C values are followed by the survivors on the day toxicity was checked, most often the fifth; where none is given, no animal had died by that day.
# System: BDF1 mice, B16 melanoma ip, median survival T/C
# Experiment: NCI In Vivo Anticancer Drug Screen. Data for tumor model B16 Melanoma (intraperitoneal) in B6D2F1 (BDF1) mice
# Conditions: T/C endpoint: median survival time, higher T/C = longer survival
# How it was run: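 Compounds were tested in mice carrying transplantable tumors. Survival or tumor size was recorded, and each value is the treated-group measurement (T) divided by that of the vehicle-treated control group (C).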
# [1] = dose: 100.0 mg/kg/injection, schedule: Q01DX009 (ip), vehicle: Klucel (hydroxypropylcellulose) (HPC)
# [2] = dose: 200.0 mg/kg/injection, schedule: Q01DX009 (ip), vehicle: Klucel (hydroxypropylcellulose) (HPC)
# [3] = dose: 400.0 mg/kg/injection, schedule: Q01DX009 (ip), vehicle: Klucel (hydroxypropylcellulose) (HPC)
# [4] = dose: 50.0 mg/kg/injection, schedule: Q01DX009 (ip), vehicle: saline
# [5] = dose: 25.0 mg/kg/injection, schedule: Q01DX009 (ip), vehicle: Klucel (hydroxypropylcellulose) (HPC)
# [6] = dose: 50.0 mg/kg/injection, schedule: Q01DX009 (ip), vehicle: Klucel (hydroxypropylcellulose) (HPC)
# [7] = dose: 100.0 mg/kg/injection, schedule: Q01DX009 (ip), vehicle: saline with Tween-80
# [8] = dose: 100.0 mg/kg/injection, schedule: Q01DX009 (ip), vehicle: saline
# [9] = dose: 200.0 mg/kg/injection, schedule: Q01DX009 (ip), vehicle: saline
compound,measurement,setting,value
CN(/N=N/c1nc[nH]c1C(N)=O)C1CCCCC1,T/C,"dose: 12.5 mg/kg/injection, schedule: Q01DX009 (ip), vehicle: carboxymethylcellulose (CMC)",135 % of control
same,T/C,"dose: 25.0 mg/kg/injection, schedule: Q01DX009 (ip), vehicle: carboxymethylcellulose (CMC)",135 % of control
same,survivor count,"dose: 100.0 mg/kg/injection, schedule: Q01DX009 (ip), vehicle: carboxymethylcellulose (CMC)",5 of 6
same,survivor count,"dose: 200.0 mg/kg/injection, schedule: Q01DX009 (ip), vehicle: carboxymethylcellulose (CMC)",5 of 6
CCN(CC)P(=O)(N1CC1C)N1CC1C (centres undefined),survivor count,"dose: 75.0 mg/kg/injection, schedule: Q01DX009 (ip), vehicle: saline",10 of 10
Cc1cc(OC(=O)c2ccc(N(C)C)cc2)ccc1[N+](=O)[O-],survivor count,[1],10 of 10
same,survivor count,[2],10 of 10
same,survivor count,[3],10 of 10
COc1ccc(C(=O)/C=C/c2ccc3c(c2)OCO3)cc1OC,survivor count,[3],9 of 10
CN(C)CCC1(c2ccccc2)C=Cc2ccccc21 (centres undefined),survivor count,[4],8 of 10
CCN(CC)CCCC(C)Nc1cc(C)nc(Nc2nc3cc(Cl)c(Cl)cc3[nH]2)n1 (centres undefined),survivor count,"dose: 20.0 mg/kg/injection, schedule: Q01DX009 (ip), vehicle: Klucel (hydroxypropylcellulose) (HPC)",10 of 10
CS(=O)(=O)OCCCCOS(C)(=O)=O,survivor count,"dose: 12.5 mg/kg/injection, schedule: Q01DX009 (ip), vehicle: Klucel (hydroxypropylcellulose) (HPC)",6 of 6
same,T/C,[5],"89 (2×), 92 (3×), 94, 95 [5 of 6 alive], 100, 103 [5 of 6 alive], 105 [4 of 6 alive], 109, 110, 129 % of control"
same,survivor count,[5],6 of 6
same,T/C,"dose: 25.0 mg/kg/injection, schedule: Q01DX009 (ip), vehicle: saline with Tween-80, evaluated on day 45",95 % of control [5 of 6 alive]
same,T/C,"dose: 25.0 mg/kg/injection, schedule: Q01DX009 (ip), vehicle: saline with Tween-80, evaluated on day 50",115 % of control
same,T/C,"dose: 25.0 mg/kg/injection, schedule: Q01DX009 (ip), vehicle: saline with Tween-80, evaluated on day 60","91 [5 of 6 alive], 95, 97 (2×), 104 % of control"
same,survivor count,"dose: 25.0 mg/kg/injection, schedule: Q01DX009 (ip), vehicle: saline with Tween-80",5 of 6 (2×) and 6 of 6
same,T/C,"dose: 25.0 mg/kg/injection, schedule: Q01DX009 (ip), vehicle: saline","86, 92, 93, 105 (3×), 117 % of control"
same,T/C,[6],"87 [4 of 6 alive], 90, 90 [4 of 6 alive], 91 [5 of 6 alive], 97, 100 (2×), 111 % of control [5 of 6 alive]"
same,survivor count,[6],"4 of 6, 5 of 6, 6 of 6"
same,T/C,"dose: 50.0 mg/kg/injection, schedule: Q01DX009 (ip), vehicle: saline with Tween-80, evaluated on day 50",92 % of control [5 of 6 alive]
same,T/C,"dose: 50.0 mg/kg/injection, schedule: Q01DX009 (ip), vehicle: saline with Tween-80, evaluated on day 60","88, 90, 92, 100 [5 of 6 alive], 102 [3 of 4 alive], 111 % of control [5 of 6 alive]"
same,survivor count,"dose: 50.0 mg/kg/injection, schedule: Q01DX009 (ip), vehicle: saline with Tween-80","4 of 6, 5 of 6, 6 of 6"
same,T/C,[4],"91, 92, 97, 102, 110, 115 % of control"
same,T/C,[1],100 and 109 % of control [4 of 6 alive]
same,survivor count,[1],"0 of 6, 1 of 6, 2 of 6, 3 of 6, 5 of 6, 6 of 6"
same,T/C,[7],92 and 94 % of control [4 of 6 alive]
same,survivor count,[7],"1 of 6, 3 of 6 (2×), 4 of 6 (2×), 5 of 6"
same,survivor count,[8],"0 of 6, 1 of 6, 2 of 6, 3 of 6, 5 of 6, 6 of 6"
same,survivor count,[2],"0 of 6, 1 of 6, 2 of 6, 3 of 6, 6 of 6"
same,survivor count,"dose: 200.0 mg/kg/injection, schedule: Q01DX009 (ip), vehicle: saline with Tween-80",0 of 6 (2×) and 6 of 6
same,survivor count,[9],"0 of 6, 1 of 6, 2 of 6"
COc1c(Cl)c2c(c(OC)c1OC)-c1ccc(OC)c(=O)cc1C(NC(C)=O)CC2 (centres undefined),T/C,"dose: 0.38 mg/kg/injection, schedule: Q01DX009 (ip), vehicle: Klucel (hydroxypropylcellulose) (HPC)",127 % of control
same,T/C,"dose: 0.75 mg/kg/injection, schedule: Q01DX009 (ip), vehicle: Klucel (hydroxypropylcellulose) (HPC)",126 % of control
same,T/C,"dose: 1.5 mg/kg/injection, schedule: Q01DX009 (ip), vehicle: Klucel (hydroxypropylcellulose) (HPC)",125 and 142 % of control
same,survivor count,"dose: 3.0 mg/kg/injection, schedule: Q01DX009 (ip), vehicle: Klucel (hydroxypropylcellulose) (HPC)",10 of 10
same,survivor count,"dose: 6.0 mg/kg/injection, schedule: Q01DX009 (ip), vehicle: Klucel (hydroxypropylcellulose) (HPC)",10 of 10
COc1c(Cl)cc2c(c1OC)N(C)C1N3C(=O)C4(C)SSC3(C(=O)N4C)C(O)C21O (centres undefined),T/C,"dose: 0.5 mg/kg/injection, schedule: Q01DX009 (ip), vehicle: Klucel (hydroxypropylcellulose) (HPC)",131 % of control
same,survivor count,"dose: 1.0 mg/kg/injection, schedule: Q01DX009 (ip), vehicle: Klucel (hydroxypropylcellulose) (HPC)",10 of 10
CCCn1cnc2c(=S)nc[nH]c21,survivor count,[7],10 of 10
same,survivor count,"dose: 150.0 mg/kg/injection, schedule: Q04DX003 (ip), vehicle: saline with Tween-80",10 of 10
same,survivor count,"dose: 300.0 mg/kg/injection, schedule: Q04DX003 (ip), vehicle: saline with Tween-80",10 of 10
same,survivor count,"dose: 600.0 mg/kg/injection, schedule: Q04DX003 (ip), vehicle: saline with Tween-80",10 of 10
O=C(COc1ccc(Cl)cc1)Nc1cccnc1,survivor count,[1],0 of 10
C=CCC(N)Cc1ccccc1 (centres undefined),survivor count,[8],5 of 10
same,survivor count,"dose: 100.0 mg/kg/injection, schedule: Q04DX003 (ip), vehicle: saline",7 of 10
same,survivor count,[9],0 of 10
same,survivor count,"dose: 200.0 mg/kg/injection, schedule: Q04DX003 (ip), vehicle: saline",0 of 10
same,survivor count,"dose: 400.0 mg/kg/injection, schedule: Q04DX003 (ip), vehicle: saline",0 of 10
CC1CN=C(c2ccc(NC(=O)c3ccc(C(=O)Nc4ccc(C5=NCC(C)N5)cc4)cc3)cc2)N1 (centres undefined),survivor count,[6],9 of 10
same,survivor count,[1],10 of 10
same,survivor count,[2],9 of 10
same,survivor count,[3],10 of 10
